Laboratory results as given in article PMC3627651.

The chains behind the UniProt entries cited, without tags or fusion partners. Where a name states a change or a piece, a line headed by the entry shows the natural chain unless it says otherwise.
UniProt O42478: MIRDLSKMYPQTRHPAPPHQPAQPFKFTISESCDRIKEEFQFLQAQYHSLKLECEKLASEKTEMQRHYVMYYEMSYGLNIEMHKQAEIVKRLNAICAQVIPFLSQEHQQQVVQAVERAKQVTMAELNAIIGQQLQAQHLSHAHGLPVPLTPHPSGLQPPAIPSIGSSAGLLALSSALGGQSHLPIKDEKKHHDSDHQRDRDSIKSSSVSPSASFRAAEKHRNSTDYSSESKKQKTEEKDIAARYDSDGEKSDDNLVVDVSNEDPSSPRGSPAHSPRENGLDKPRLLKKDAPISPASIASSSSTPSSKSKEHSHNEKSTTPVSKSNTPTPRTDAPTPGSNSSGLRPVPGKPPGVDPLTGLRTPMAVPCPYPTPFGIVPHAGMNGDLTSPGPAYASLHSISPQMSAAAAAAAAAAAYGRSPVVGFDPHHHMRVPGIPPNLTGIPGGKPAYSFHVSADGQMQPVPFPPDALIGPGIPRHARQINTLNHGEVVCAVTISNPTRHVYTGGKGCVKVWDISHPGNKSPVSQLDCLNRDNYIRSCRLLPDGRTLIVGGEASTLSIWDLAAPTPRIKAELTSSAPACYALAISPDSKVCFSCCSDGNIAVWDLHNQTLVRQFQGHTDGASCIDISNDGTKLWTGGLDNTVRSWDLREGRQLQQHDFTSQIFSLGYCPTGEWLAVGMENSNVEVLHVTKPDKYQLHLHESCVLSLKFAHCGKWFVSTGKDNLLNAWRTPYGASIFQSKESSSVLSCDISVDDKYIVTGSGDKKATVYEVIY
UniProt Q9PRJ8: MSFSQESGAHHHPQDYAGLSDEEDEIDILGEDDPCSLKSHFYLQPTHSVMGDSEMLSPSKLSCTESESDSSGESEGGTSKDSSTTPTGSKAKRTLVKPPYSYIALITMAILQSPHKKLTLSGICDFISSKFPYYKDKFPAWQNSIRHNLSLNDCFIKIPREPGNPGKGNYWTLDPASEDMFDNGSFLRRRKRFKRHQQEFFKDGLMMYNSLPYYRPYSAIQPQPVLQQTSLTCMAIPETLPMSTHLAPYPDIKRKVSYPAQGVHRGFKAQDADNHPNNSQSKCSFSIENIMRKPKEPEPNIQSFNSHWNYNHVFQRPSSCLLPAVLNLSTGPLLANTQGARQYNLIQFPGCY

Target: HA-tagged wild-type Xenopus Grg4 (Xenopus) (UniProt O42478)
Assay: co-IP; Xenopus oocytes co-injected with mRNAs for myc-tagged FoxD4L1 (wild type or C-terminal mutant) and HA-tagged Grg4; lysate (15 oocyte equivalents) in TNSG lysis buffer with 1 ug antibody (raised against HA or Flag), protein A/G agarose beads, 4 C overnight; Western blot

- binding: binds
Substance: myc-tagged wt-FoxD4L1 (from UniProt Q9PRJ8)

These are yes or no findings as the source states them, for the method shown. In cells and extracts the contact can be indirect. A result given as binding can be weak or reduced; the word gives no strength.
